Our source for the binding values is article PMC8512631, “Structural Basis for PPARs Activation by The Dual PPARα/γ Agonist Sanguinarine: A Unique Mode of Ligand Recognition” (Molecules, 2021).

The target in the assay is PPARγ ligand-binding domain (human). Kind of assay: AlphaScreen or HTRF; approximately 20–40 nM PPAR LBDs on nickel chelate acceptor beads, 20 nM biotinylated co-factor peptides on streptavidin donor beads; 50 mM MOPS, 50 mM NaF, 0.05 mM CHAPS, 0.1 mg/mL BSA, pH 7.4; in response to 1 μM sanguinarine; both purified. For orientation: Bead proximity is the source of the signal in Alpha formats.

No constants are given. Whether binding was seen depends on the method and setting. Binding can be weak; no strength is given.

With PDAASKHKQLSELLRGGSG (biotin on the N-terminus) [biotinylated SRC3-3 co-activator LXXLL motif peptide], the binding entry is listed as “binds”.
